Data as given in paper PMC7862700.
The list shows a part of the results, in another mix than the full data. At the low end of the ranking, values are background and their order means little.

Chains of the proteins cited; added tags and fusions are not shown. Lines headed by an entry give the natural chain unless they say otherwise; changes in a name come on top.
UniProt Q01892: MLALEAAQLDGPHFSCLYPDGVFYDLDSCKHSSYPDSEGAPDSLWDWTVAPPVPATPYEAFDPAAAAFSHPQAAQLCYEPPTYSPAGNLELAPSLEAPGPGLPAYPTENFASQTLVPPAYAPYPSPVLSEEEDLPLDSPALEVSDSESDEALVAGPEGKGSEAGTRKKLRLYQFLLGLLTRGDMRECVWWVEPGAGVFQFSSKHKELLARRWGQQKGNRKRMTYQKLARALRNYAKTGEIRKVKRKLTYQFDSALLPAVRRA
UniProt P41161: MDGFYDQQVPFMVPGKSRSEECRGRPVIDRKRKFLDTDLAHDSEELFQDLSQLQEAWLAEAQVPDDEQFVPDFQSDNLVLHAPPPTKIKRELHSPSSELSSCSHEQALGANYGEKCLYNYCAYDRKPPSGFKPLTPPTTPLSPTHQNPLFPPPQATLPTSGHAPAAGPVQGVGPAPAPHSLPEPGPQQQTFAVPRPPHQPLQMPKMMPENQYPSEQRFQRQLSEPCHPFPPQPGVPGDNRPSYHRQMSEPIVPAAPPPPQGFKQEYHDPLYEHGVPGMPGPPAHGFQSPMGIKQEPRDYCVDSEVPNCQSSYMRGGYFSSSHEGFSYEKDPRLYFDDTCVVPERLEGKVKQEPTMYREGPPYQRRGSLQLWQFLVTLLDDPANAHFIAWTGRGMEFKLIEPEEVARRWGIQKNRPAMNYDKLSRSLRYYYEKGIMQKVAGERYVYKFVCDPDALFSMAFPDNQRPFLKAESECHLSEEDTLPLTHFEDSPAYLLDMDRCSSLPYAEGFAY
UniProt Q99607: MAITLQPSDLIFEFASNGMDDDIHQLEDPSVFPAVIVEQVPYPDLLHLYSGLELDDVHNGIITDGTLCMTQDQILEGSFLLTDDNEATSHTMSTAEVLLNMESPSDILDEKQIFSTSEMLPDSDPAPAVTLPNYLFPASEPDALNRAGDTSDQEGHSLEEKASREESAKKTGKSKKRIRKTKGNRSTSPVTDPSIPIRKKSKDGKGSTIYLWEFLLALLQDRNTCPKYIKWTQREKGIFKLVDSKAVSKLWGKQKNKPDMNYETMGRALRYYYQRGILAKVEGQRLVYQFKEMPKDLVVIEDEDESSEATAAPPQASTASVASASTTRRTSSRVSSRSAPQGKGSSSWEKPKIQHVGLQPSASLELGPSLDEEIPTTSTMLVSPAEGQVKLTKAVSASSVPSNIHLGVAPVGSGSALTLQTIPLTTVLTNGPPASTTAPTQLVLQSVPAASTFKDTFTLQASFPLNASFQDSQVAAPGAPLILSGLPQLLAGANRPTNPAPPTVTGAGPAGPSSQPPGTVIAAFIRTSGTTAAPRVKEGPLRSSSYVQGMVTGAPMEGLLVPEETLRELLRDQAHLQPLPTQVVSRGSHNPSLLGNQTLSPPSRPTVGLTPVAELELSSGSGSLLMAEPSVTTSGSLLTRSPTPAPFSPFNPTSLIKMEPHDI

Columns and labels:
Assay in all cases: DAPPL (digital affinity profiling via proximity ligation, sequencing)
Settings in all cases: 10 mM Tris-HCl pH 7.5, 50 mM NaCl, 1 mM DTT, 4% glycerol, room temperature, 30 min; GST-TFs on glutathione beads, 16-mer random dsDNA library, 0.1% …; high values mean tight binding; double strand, one strand shown; scale: fold enrichment (6-mer frequency, TF over GST control)
FLI1 = biological target: T1, FLI1 (UniProt Q01543)
T1 sequence: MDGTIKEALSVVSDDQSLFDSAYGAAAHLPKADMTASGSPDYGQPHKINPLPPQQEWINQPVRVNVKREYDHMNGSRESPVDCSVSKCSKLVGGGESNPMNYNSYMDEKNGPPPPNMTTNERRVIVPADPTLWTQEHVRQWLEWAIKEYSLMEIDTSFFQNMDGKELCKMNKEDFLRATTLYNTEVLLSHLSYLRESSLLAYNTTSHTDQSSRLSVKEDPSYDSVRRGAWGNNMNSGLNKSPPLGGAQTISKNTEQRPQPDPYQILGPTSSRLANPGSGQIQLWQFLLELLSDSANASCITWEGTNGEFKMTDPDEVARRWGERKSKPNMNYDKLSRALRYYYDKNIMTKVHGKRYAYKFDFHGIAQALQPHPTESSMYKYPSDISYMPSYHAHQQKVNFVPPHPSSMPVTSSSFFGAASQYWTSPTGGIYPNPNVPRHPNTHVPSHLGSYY

EHF = biological target: T2, EHF (UniProt Q9NZC4)
T2 sequence: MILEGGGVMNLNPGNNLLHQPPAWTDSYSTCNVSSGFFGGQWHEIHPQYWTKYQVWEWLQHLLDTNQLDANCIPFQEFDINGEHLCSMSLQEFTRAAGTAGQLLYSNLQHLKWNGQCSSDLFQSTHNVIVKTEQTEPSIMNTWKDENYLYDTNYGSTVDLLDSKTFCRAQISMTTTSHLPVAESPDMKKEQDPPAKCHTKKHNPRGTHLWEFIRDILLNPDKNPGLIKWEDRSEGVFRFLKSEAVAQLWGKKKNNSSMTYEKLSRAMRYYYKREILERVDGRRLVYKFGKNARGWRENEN

SPIB = SPIB (UniProt Q01892)
ETV5 = ETV5 (UniProt P41161)
ELF4 = ELF4 (UniProt Q99607)
ETV2 = biological target: T3, ETV2 (UniProt O00321)
T3 sequence: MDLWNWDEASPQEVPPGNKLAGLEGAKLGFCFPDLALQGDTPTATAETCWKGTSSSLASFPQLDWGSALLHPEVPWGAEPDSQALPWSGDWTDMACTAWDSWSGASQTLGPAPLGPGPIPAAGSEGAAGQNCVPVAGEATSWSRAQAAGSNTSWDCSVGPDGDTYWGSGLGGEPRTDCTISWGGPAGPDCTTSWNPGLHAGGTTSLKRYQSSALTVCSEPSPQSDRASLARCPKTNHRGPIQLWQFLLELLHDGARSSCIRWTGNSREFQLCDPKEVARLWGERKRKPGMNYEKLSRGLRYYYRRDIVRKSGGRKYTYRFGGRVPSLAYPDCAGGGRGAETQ

ETV3L = biological target: T4, ETV3L (UniProt Q6ZN32)
T4 sequence: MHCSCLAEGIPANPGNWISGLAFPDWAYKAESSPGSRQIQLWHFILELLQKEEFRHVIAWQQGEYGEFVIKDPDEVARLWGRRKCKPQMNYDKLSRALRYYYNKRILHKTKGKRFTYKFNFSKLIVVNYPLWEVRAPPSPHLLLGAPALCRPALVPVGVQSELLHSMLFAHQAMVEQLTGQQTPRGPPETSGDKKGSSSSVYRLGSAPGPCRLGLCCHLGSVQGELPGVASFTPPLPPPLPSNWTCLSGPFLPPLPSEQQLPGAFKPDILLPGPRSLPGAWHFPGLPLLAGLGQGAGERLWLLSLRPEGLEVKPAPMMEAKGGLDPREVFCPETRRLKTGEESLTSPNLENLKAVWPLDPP

| Sequence | binding signal (FLI1) | binding signal (EHF) | binding signal (SPIB) | binding signal (ETV5) | binding signal (ELF4) | binding signal (ETV2) | binding signal (ETV3L) |
| --- | --- | --- | --- | --- | --- | --- | --- |
| GACTGG | 0.656 | 0.682 | 0.665 | 0.623 | 0.658 | 0.678 | 0.662 |
| CCGTAG | 0.856 | 0.838 | 0.818 | 0.832 | 0.873 | 0.738 | 0.887 |
| TGGACG | 0.817 | 0.83 | 0.838 | 0.827 | 0.808 | 0.824 | 0.819 |
| AGAGGC | 0.751 | 0.662 | 0.725 | 0.652 | 0.687 | 0.789 | 0.691 |
| GCGTGT | 0.636 | 0.532 | 0.573 | 0.564 | 0.544 | 0.556 | 0.537 |
| GGAAGG | 0.777 | 0.842 | 0.853 | 0.874 | 0.731 | 0.771 | 0.797 |
| CGAGAG | 0.441 | 0.406 | 0.413 | 0.408 | 0.418 | 0.384 | 0.407 |
| GGAGAT | 0.277 | 0.303 | 0.33 | 0.328 | 0.29 | 0.321 | 0.284 |
| GCGGAT | 0.797 | 0.87 | 0.855 | 0.848 | 0.83 | 0.968 | 0.902 |
| TACGTG | 0.702 | 0.732 | 0.666 | 0.729 | 0.697 | 0.735 | 0.741 |
| CGGAAT | 0.847 | 0.976 | 0.973 | 0.977 | 0.867 | 0.928 | 0.875 |
| CGGGCG | 0.364 | 0.406 | 0.417 | 0.423 | 0.409 | 0.467 | 0.44 |
| GCACGG | 0.847 | 0.823 | 0.862 | 0.898 | 0.837 | 0.786 | 0.818 |
| AACGTG | 0.353 | 0.42 | 0.351 | 0.367 | 0.373 | 0.414 | 0.38 |
| CGCAGG | 0.827 | 0.81 | 0.923 | 0.833 | 0.886 | 0.897 | 0.83 |
| GGAGCG | 0.346 | 0.387 | 0.372 | 0.353 | 0.394 | 0.362 | 0.387 |
| AGTAGT | 0.97 | 0.98 | 0.911 | 0.886 | 0.89 | 0.91 | 0.929 |
| CTGAGT | 0.65 | 0.632 | 0.612 | 0.63 | 0.627 | 0.594 | 0.623 |
| GTCAAC | 0.968 | 0.889 | 0.911 | 0.912 | 0.934 | 0.933 | 0.942 |
| TGGGGG | 0.777 | 0.71 | 0.783 | 0.666 | 0.684 | 0.839 | 0.833 |

| Sequence | binding signal (FLI1) | binding signal (EHF) | binding signal (SPIB) | binding signal (ETV5) | binding signal (ELF4) | binding signal (ETV2) | binding signal (ETV3L) |
| --- | --- | --- | --- | --- | --- | --- | --- |
| CACCGT | 0.602 | 0.606 | 0.651 | 0.61 | 0.73 | 0.692 | 0.66 |
| GCATGG | 0.85 | 0.885 | 0.759 | 0.88 | 0.908 | 0.803 | 0.987 |
| AGGACT | 0.895 | 0.934 | 0.899 | 0.889 | 0.959 | 0.968 | 0.999 |
| GAGAGC | 0.408 | 0.381 | 0.323 | 0.388 | 0.385 | 0.352 | 0.369 |
| GGAGAC | 0.152 | 0.15 | 0.145 | 0.148 | 0.135 | 0.153 | 0.15 |
| TGAGGC | 0.435 | 0.429 | 0.439 | 0.499 | 0.433 | 0.481 | 0.461 |
| GAAGAC | 0.918 | 0.872 | 0.929 | 0.896 | 0.887 | 0.837 | 0.872 |
| GATAGG | 0.822 | 0.81 | 0.847 | 0.847 | 0.798 | 0.945 | 0.837 |
| CAGTTT | 0.945 | 0.862 | 1.03 | 0.913 | 0.915 | 0.962 | 0.939 |
| AAAGGA | 0.854 | 0.862 | 0.836 | 0.867 | 0.85 | 0.881 | 0.866 |
| TAGAGG | 0.826 | 0.807 | 0.812 | 0.804 | 0.787 | 0.854 | 0.845 |
| AGTGAT | 0.861 | 0.895 | 0.989 | 0.9 | 0.884 | 0.828 | 0.861 |
| GGGGTG | 0.65 | 0.632 | 0.683 | 0.698 | 0.643 | 0.715 | 0.689 |
| GGGATG | 0.881 | 0.959 | 0.946 | 0.888 | 0.895 | 0.833 | 0.906 |
| CAGCTG | 0.923 | 0.959 | 0.891 | 0.781 | 0.902 | 0.919 | 0.963 |
| AAGGAC | 0.888 | 0.838 | 0.843 | 0.816 | 0.806 | 0.843 | 0.827 |
| GAGGTA | 0.669 | 0.634 | 0.692 | 0.677 | 0.661 | 0.648 | 0.605 |
| GAGCAA | 0.683 | 0.708 | 0.741 | 0.649 | 0.768 | 0.808 | 0.721 |
| GCGCAG | 0.859 | 0.848 | 0.862 | 0.826 | 0.836 | 0.77 | 0.806 |
| ACAGGG | 0.819 | 0.802 | 0.809 | 0.764 | 0.863 | 0.688 | 0.764 |

Rewritten with each value named: part of the list above
CGGGCG
  binding signal (FLI1) = 0.364
  binding signal (EHF) = 0.406
  binding signal (SPIB) = 0.417
  binding signal (ETV5) = 0.423
  binding signal (ELF4) = 0.409
  binding signal (ETV2) = 0.467
  binding signal (ETV3L) = 0.44
GCACGG
  binding signal (FLI1) = 0.847
  binding signal (EHF) = 0.823
  binding signal (SPIB) = 0.862
  binding signal (ETV5) = 0.898
  binding signal (ELF4) = 0.837
  binding signal (ETV2) = 0.786
  binding signal (ETV3L) = 0.818
AACGTG
  binding signal (FLI1) = 0.353
  binding signal (EHF) = 0.42
  binding signal (SPIB) = 0.351
  binding signal (ETV5) = 0.367
  binding signal (ELF4) = 0.373
  binding signal (ETV2) = 0.414
  binding signal (ETV3L) = 0.38
CGCAGG
  binding signal (FLI1) = 0.827
  binding signal (EHF) = 0.81
  binding signal (SPIB) = 0.923
  binding signal (ETV5) = 0.833
  binding signal (ELF4) = 0.886
  binding signal (ETV2) = 0.897
  binding signal (ETV3L) = 0.83

Going on with the list.

| Sequence | binding signal (FLI1) | binding signal (EHF) | binding signal (SPIB) | binding signal (ETV5) | binding signal (ELF4) | binding signal (ETV2) | binding signal (ETV3L) |
| --- | --- | --- | --- | --- | --- | --- | --- |
| AGGGTA | 0.897 | 0.85 | 0.922 | 0.856 | 0.871 | 0.72 | 0.873 |
| CCTAGT | 0.945 | 0.919 | 0.992 | 0.909 | 0.929 | 0.909 | 0.883 |
| GGAGGA | 0.263 | 0.261 | 0.235 | 0.259 | 0.252 | 0.269 | 0.263 |
| TCGTGT | 0.809 | 0.722 | 0.776 | 0.753 | 0.708 | 0.696 | 0.878 |
| TGAGCA | 0.8 | 0.903 | 0.864 | 0.778 | 0.853 | 0.932 | 0.94 |
| AGTAGG | 0.632 | 0.656 | 0.596 | 0.689 | 0.599 | 0.7 | 0.647 |
| AGAGAC | 0.502 | 0.508 | 0.508 | 0.523 | 0.547 | 0.508 | 0.491 |
| GGTCGA | 0.756 | 0.792 | 0.781 | 0.798 | 0.754 | 0.827 | 0.744 |
| GGTTAG | 0.78 | 0.753 | 0.788 | 0.721 | 0.748 | 0.934 | 0.836 |
| GCAGTG | 0.56 | 0.504 | 0.571 | 0.566 | 0.613 | 0.53 | 0.563 |
| GCGCGG | 0.732 | 0.815 | 0.8 | 0.753 | 0.828 | 0.761 | 0.817 |
| ACAGGT | 0.699 | 0.695 | 0.692 | 0.837 | 0.754 | 0.815 | 0.773 |
| GGGGTT | 0.948 | 0.769 | 0.851 | 0.842 | 0.856 | 0.98 | 0.949 |
| GAGTGA | 0.419 | 0.435 | 0.404 | 0.436 | 0.395 | 0.453 | 0.419 |
| CGCGGT | 0.829 | 0.927 | 0.966 | 0.868 | 0.94 | 0.888 | 0.956 |
| GTCAGG | 0.499 | 0.501 | 0.555 | 0.502 | 0.525 | 0.507 | 0.565 |
| GGTCGT | 0.586 | 0.669 | 0.657 | 0.648 | 0.64 | 0.692 | 0.61 |
| CCAGGT | 0.725 | 0.677 | 0.833 | 0.735 | 0.78 | 0.647 | 0.751 |
| GCAGTC | 0.462 | 0.438 | 0.448 | 0.444 | 0.488 | 0.459 | 0.492 |
